# Laboratory results reported in patent US7737157B2, “Pyrimidine compounds” (Hutchison MediPharma Enterprises Limited, priority 2008, dated 2010).
# Protein sequences, listed by entry. Tags and fused reporters are not part of them. Residues count along the entry.
# UniProt P35968, 834-1162 limits assumed: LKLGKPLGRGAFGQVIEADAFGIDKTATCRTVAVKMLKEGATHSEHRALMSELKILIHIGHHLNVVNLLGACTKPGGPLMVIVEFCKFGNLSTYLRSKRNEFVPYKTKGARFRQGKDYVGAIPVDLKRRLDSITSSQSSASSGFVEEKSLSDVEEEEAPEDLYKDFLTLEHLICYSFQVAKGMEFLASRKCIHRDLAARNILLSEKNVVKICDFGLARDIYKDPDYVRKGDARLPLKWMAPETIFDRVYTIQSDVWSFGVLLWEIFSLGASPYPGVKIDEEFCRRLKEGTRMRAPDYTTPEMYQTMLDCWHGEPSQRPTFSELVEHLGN
# Some entries share one result that the patent states for a list of compounds.
# Biological target: T1, KDR (Homo sapiens, UniProt P35968)
# T1 construct: was mixed with a KDR catalytic domain (Invitrogen, Cat. PV3660); purchased Invitrogen PV3660
# Experiment: Inhibition of KDR kinase activity (Z'-LYTE Tyr1 Peptide assay kit)
# Format: biochemical
# Conditions: KDR catalytic domain, result in words
row,SMILES,inhibition of the activity of KDR
1,CNC(=O)c1c(C)oc2cc(Oc3ccnc(Nc4cccc(NCCS(=O)(=O)N(C)C)c4)n3)ccc12 [Compound 24],effectively inhibited the activity of KDR
2,CNC(=O)c1c(C)oc2cc(Oc3ccnc(Nc4cccc(CS(=O)(=O)NC(C)C(=O)NC)c4)n3)ccc12 (stereo not shown) [Compound 25],effectively inhibited the activity of KDR
3,CNC(=O)c1c(C)oc2cc(Oc3ccnc(Nc4cccc(OCCNS(C)(=O)=O)c4)n3)ccc12 [Compound 26],effectively inhibited the activity of KDR
4,CNC(=O)c1cccc(Nc2nccc(Oc3ccc4c(C(=O)NC)c(C)oc4c3)n2)c1 [Compound 27],effectively inhibited the activity of KDR
5,CNC(=O)c1c(C)oc2cc(Oc3ccnc(Nc4cccc(CN5CCC(CO)CC5)c4)n3)ccc12 [Compound 28],effectively inhibited the activity of KDR
6,CNC(=O)c1c(C)oc2cc(Oc3ccnc(Nc4cccc(CN5CCC(CCO)CC5)c4)n3)ccc12 [Compound 29],effectively inhibited the activity of KDR
7,CNC(=O)c1c(C)oc2cc(Oc3ccnc(Nc4ccc(NCC(F)(F)F)nc4)n3)ccc12 [Compound 30],effectively inhibited the activity of KDR
8,CCNc1ccc(Nc2nccc(Oc3ccc4c(C(=O)NC)c(C)oc4c3)n2)cn1 [Compound 31],effectively inhibited the activity of KDR
9,CNC(=O)c1c(C)oc2cc(Oc3ccnc(Nc4cccc(N5CCOCC5)c4)n3)ccc12 [Compound 32],effectively inhibited the activity of KDR
10,CNC(=O)c1c(C)oc2cc(Oc3ccnc(Nc4cccc(NC(=O)CN5CCN(C(C)=O)CC5)c4)n3)ccc12 [Compound 33],effectively inhibited the activity of KDR
11,CCOCCN1CCN(CC(=O)Nc2cccc(Nc3nccc(Oc4ccc5c(C(=O)NC)c(C)oc5c4)n3)c2)CC1 [Compound 34],effectively inhibited the activity of KDR
12,CNC(=O)c1c(C)oc2cc(Oc3ccnc(Nc4ccc(-c5nc(C)no5)cc4)n3)ccc12 [Compound 35],effectively inhibited the activity of KDR
13,CNC(=O)c1c(C)oc2cc(Oc3ccnc(Nc4cccc(CS(=O)(=O)N5CCNC(=O)C5)c4)n3)ccc12 [Compound 36],effectively inhibited the activity of KDR
14,CNC(=O)c1c(C)oc2cc(Oc3ccnc(Nc4cccc(NS(C)(=O)=O)c4)n3)ccc12 [Compound 37],effectively inhibited the activity of KDR
15,CNC(=O)c1c(C)oc2cc(Oc3ccnc(Nc4cccc(NC(=O)CN5CCN(CC6CC6)CC5)c4)n3)ccc12 [Compound 38],effectively inhibited the activity of KDR
16,CNC(=O)c1c(C)oc2cc(Oc3ccnc(Nc4cccc(CCN5CCOCC5)c4)n3)ccc12 [Compound 39],effectively inhibited the activity of KDR
17,CNC(=O)c1c(C)oc2cc(Oc3ccnc(Nc4ccc(OC)c(OCCN5CCOCC5)c4)n3)ccc12 [Compound 40],effectively inhibited the activity of KDR
18,CCN1CCN(CC(=O)Nc2cccc(Nc3nccc(Oc4ccc5c(C(=O)NC)c(C)oc5c4)n3)c2)CC1 [Compound 41],effectively inhibited the activity of KDR
19,CNC(=O)c1c(C)oc2cc(Oc3ccnc(Nc4cccc(NC(=O)CN5CCC(C)CC5)c4)n3)ccc12 [Compound 42],effectively inhibited the activity of KDR
20,CNC(=O)c1c(C)oc2cc(Oc3ccnc(Nc4cccc(-c5ncc(C)o5)c4)n3)ccc12 [Compound 43],effectively inhibited the activity of KDR
21,CNC(=O)c1c(C)oc2cc(Oc3ccnc(Nc4cccc(CNC(=O)NCc5ccccn5)c4)n3)ccc12 [Compound 44],effectively inhibited the activity of KDR
22,CNC(=O)c1c(C)oc2cc(Oc3ccnc(Nc4cccc(NC(=O)NCCOC)c4)n3)ccc12 [Compound 45],effectively inhibited the activity of KDR
